No constants are given. Whether binding was seen depends on the method and setting. Binding seen in cells or lysates may run through a third protein. Some entries that bind do so weakly or less than the wild type.

This note sets out measurements from PMC3378550.

Assay [1] concerns the target T1, PPARα, endogenous in mouse heart (mouse (endogenous in mouse heart)) (UniProt P23204).
T1 sequence: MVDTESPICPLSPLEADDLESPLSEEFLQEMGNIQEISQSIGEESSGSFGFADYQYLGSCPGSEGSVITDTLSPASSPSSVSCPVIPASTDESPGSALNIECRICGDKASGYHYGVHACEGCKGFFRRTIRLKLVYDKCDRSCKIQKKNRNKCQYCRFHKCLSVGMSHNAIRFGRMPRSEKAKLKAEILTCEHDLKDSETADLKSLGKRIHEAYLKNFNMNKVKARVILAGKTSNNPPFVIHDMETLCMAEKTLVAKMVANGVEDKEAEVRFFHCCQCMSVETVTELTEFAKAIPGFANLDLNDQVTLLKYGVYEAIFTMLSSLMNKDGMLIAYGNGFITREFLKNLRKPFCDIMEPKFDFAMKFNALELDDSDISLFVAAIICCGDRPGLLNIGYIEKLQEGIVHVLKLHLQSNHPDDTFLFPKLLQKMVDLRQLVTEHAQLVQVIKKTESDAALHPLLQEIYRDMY
Nature of the assay: co-IP; heart lysates of exercised or sedentary mice treated with vehicle or U0126; IP with anti-MEK1 or anti-PPARα antibody, Western blot; endogenous proteins.

Assay [2] deals with MEK1, endogenous in mouse heart (mouse (endogenous in mouse heart)) (UniProt P31938). The description is as above.

As to “MEK1, endogenous in mouse heart (from UniProt P31938 1-393) (enzyme)”, in assay [1], the binding entry is “binds”.

B1: PPARα, endogenous in mouse heart (protein, UniProt P23204 1-468)
chain: MVDTESPICPLSPLEADDLESPLSEEFLQEMGNIQEISQSIGEESSGSFGFADYQYLGSCPGSEGSVITDTLSPASSPSSVSCPVIPASTDESPGSALNIECRICGDKASGYHYGVHACEGCKGFFRRTIRLKLVYDKCDRSCKIQKKNRNKCQYCRFHKCLSVGMSHNAIRFGRMPRSEKAKLKAEILTCEHDLKDSETADLKSLGKRIHEAYLKNFNMNKVKARVILAGKTSNNPPFVIHDMETLCMAEKTLVAKMVANGVEDKEAEVRFFHCCQCMSVETVTELTEFAKAIPGFANLDLNDQVTLLKYGVYEAIFTMLSSLMNKDGMLIAYGNGFITREFLKNLRKPFCDIMEPKFDFAMKFNALELDDSDISLFVAAIICCGDRPGLLNIGYIEKLQEGIVHVLKLHLQSNHPDDTFLFPKLLQKMVDLRQLVTEHAQLVQVIKKTESDAALHPLLQEIYRDMY
As to B1, the binding result in assay [2] is listed as “binds”.
